According to publication PMC5341102:
These are yes or no findings as the source states them, for the method shown. In cells and extracts the contact can be indirect. Binding can be weak; no strength is given. For some assays here: Where a sequence is shown, tags or fusion partners need not be part of it.

Tests used:
GST-OGT-1 (C. elegans) = target: T1, GST-OGT-1 (C. elegans) (UniProt O18158); test: pull-down; GST or GST-OGT-1 purified from E. coli BL21(DE3), incubated with whole worm lysates of LD1(ldls7) and glutathione Sepharose 4B beads; extensive washes; western blotting with anti-GFP antibody; only the target purified
T1 sequence: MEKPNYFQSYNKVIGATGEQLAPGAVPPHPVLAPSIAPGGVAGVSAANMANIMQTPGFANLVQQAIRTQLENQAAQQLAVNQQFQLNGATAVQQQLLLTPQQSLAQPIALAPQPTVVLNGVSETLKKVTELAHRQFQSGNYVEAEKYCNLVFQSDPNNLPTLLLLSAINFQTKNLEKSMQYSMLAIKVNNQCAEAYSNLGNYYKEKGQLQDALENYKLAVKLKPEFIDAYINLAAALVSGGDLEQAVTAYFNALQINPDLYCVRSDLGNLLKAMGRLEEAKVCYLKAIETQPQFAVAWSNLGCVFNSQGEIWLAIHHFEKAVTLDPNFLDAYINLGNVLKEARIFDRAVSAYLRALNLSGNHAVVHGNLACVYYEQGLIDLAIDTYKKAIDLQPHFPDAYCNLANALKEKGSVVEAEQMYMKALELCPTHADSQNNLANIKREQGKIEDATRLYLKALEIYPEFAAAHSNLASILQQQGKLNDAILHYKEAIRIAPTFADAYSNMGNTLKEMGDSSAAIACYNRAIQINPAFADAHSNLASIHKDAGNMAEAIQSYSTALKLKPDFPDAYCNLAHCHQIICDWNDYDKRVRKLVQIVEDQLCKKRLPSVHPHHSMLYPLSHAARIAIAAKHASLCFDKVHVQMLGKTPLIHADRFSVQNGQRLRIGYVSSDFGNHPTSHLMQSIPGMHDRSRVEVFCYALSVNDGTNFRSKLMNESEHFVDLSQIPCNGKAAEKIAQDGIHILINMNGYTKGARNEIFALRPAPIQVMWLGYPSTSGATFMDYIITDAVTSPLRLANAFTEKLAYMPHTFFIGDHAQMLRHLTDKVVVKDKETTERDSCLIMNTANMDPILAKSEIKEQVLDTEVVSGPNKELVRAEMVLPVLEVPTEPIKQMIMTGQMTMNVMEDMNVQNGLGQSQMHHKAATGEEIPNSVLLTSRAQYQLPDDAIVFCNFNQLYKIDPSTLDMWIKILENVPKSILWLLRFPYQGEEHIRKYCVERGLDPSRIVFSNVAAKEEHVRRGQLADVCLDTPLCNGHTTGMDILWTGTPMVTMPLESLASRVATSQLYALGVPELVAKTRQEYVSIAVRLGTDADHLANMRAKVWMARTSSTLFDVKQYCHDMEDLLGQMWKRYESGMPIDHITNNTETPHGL

[1] = target: SKN-1(B/C)::GFP (C. elegans); test: co-IP; whole extracts of SKN-1B/C::GFP worms (with or without tBHP treatment) immunoprecipitated with anti-GFP antibody overnight at 4 °C, protein A/G magnetic beads; lysis buffer 50 mM Tris-HCl pH 7.5, 150 mM NaCl, 1 mM EDTA, 0.5% NP-40; immunoblotting with anti-OGT antibody; IgG as negative control

Molecule | binding (GST-OGT-1 (C. elegans)) | binding [1]
SKN-1(B/C)::GFP (C. elegans) | binds | 
OGT-1 (enzyme, UniProt O18158 1-1151) MEKPNYFQSYNKVIGATGEQLAPGAVPPHPVLAPSIAPGGVAGVSAANMANIMQTPGFANLVQQAIRTQLENQAAQQLAVNQQFQLNGATAVQQQLLLTPQQSLAQPIALAPQPTVVLNGVSETLKKVTELAHRQFQSGNYVEAEKYCNLVFQSDPNNLPTLLLLSAINFQTKNLEKSMQYSMLAIKVNNQCAEAYSNLGNYYKEKGQLQDALENYKLAVKLKPEFIDAYINLAAALVSGGDLEQAVTAYFNALQINPDLYCVRSDLGNLLKAMGRLEEAKVCYLKAIETQPQFAVAWSNLGCVFNSQGEIWLAIHHFEKAVTLDPNFLDAYINLGNVLKEARIFDRAVSAYLRALNLSGNHAVVHGNLACVYYEQGLIDLAIDTYKKAIDLQPHFPDAYCNLANALKEKGSVVEAEQMYMKALELCPTHADSQNNLANIKREQGKIEDATRLYLKALEIYPEFAAAHSNLASILQQQGKLNDAILHYKEAIRIAPTFADAYSNMGNTLKEMGDSSAAIACYNRAIQINPAFADAHSNLASIHKDAGNMAEAIQSYSTALKLKPDFPDAYCNLAHCHQIICDWNDYDKRVRKLVQIVEDQLCKKRLPSVHPHHSMLYPLSHAARIAIAAKHASLCFDKVHVQMLGKTPLIHADRFSVQNGQRLRIGYVSSDFGNHPTSHLMQSIPGMHDRSRVEVFCYALSVNDGTNFRSKLMNESEHFVDLSQIPCNGKAAEKIAQDGIHILINMNGYTKGARNEIFALRPAPIQVMWLGYPSTSGATFMDYIITDAVTSPLRLANAFTEKLAYMPHTFFIGDHAQMLRHLTDKVVVKDKETTERDSCLIMNTANMDPILAKSEIKEQVLDTEVVSGPNKELVRAEMVLPVLEVPTEPIKQMIMTGQMTMNVMEDMNVQNGLGQSQMHHKAATGEEIPNSVLLTSRAQYQLPDDAIVFCNFNQLYKIDPSTLDMWIKILENVPKSILWLLRFPYQGEEHIRKYCVERGLDPSRIVFSNVAAKEEHVRRGQLADVCLDTPLCNGHTTGMDILWTGTPMVTMPLESLASRVATSQLYALGVPELVAKTRQEYVSIAVRLGTDADHLANMRAKVWMARTSSTLFDVKQYCHDMEDLLGQMWKRYESGMPIDHITNNTETPHGL |  | binds
